These are yes or no findings as the source states them, for the method shown. For some assays here: In cells and extracts the contact can be indirect. Some entries that bind do so weakly or less than the wild type. Where a sequence is shown, tags or fusion partners need not be part of it.
T1: CLuc-IAA15 (Arabidopsis thaliana) (UniProt Q9C966)
T1 sequence: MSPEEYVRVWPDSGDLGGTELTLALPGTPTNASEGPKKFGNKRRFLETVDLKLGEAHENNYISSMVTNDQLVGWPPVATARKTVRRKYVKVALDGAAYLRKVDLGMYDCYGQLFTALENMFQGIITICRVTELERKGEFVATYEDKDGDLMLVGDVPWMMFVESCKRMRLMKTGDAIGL

By UniProt entry, the sequences of proteins in these tests, tags left out.
UniProt Q39026: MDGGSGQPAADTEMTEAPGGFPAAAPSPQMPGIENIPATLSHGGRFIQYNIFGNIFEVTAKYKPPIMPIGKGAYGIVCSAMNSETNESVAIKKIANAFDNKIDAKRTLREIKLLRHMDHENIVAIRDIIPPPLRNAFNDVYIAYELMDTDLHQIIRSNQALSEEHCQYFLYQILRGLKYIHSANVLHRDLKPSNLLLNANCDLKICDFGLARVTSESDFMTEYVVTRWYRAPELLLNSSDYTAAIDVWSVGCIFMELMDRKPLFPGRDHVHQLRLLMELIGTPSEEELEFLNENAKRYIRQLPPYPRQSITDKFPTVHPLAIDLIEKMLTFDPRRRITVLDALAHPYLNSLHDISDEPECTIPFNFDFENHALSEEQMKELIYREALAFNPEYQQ

T2: ARF19 in pAS2-1 (BD-ARF19) (Arabidopsis thaliana) (UniProt Q8RYC8)
T2 sequence: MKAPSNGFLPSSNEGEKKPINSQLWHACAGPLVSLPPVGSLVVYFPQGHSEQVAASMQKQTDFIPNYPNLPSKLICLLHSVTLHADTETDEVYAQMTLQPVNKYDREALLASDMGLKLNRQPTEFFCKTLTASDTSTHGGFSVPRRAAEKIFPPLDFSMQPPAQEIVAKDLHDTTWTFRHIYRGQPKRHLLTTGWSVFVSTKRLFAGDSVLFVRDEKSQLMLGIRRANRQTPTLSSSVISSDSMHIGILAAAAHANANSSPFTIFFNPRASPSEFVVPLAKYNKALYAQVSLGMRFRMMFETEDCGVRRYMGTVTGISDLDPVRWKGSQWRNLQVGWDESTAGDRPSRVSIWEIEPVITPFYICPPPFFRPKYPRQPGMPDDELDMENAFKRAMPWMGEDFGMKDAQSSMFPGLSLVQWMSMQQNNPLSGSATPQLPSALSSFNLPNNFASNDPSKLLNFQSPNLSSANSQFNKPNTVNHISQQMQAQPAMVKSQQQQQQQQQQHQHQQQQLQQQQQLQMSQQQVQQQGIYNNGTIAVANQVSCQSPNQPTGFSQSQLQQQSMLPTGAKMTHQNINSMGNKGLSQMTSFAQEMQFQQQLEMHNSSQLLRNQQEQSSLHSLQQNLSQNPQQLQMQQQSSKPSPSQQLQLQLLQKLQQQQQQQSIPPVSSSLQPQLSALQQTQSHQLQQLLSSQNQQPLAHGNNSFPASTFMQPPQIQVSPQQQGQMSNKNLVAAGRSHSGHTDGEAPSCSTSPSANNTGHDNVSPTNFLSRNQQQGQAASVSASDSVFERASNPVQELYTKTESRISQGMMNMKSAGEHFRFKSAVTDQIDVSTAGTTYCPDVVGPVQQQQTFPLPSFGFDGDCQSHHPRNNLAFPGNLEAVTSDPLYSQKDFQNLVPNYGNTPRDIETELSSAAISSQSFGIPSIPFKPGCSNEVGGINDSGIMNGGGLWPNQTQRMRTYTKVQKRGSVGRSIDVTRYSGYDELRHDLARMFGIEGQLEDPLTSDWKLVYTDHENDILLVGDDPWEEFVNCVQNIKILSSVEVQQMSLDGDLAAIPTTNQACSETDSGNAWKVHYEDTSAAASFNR

T3: ARF7 in pAS2-1 (BD-ARF7) (Arabidopsis thaliana) (UniProt P93022)
T3 sequence: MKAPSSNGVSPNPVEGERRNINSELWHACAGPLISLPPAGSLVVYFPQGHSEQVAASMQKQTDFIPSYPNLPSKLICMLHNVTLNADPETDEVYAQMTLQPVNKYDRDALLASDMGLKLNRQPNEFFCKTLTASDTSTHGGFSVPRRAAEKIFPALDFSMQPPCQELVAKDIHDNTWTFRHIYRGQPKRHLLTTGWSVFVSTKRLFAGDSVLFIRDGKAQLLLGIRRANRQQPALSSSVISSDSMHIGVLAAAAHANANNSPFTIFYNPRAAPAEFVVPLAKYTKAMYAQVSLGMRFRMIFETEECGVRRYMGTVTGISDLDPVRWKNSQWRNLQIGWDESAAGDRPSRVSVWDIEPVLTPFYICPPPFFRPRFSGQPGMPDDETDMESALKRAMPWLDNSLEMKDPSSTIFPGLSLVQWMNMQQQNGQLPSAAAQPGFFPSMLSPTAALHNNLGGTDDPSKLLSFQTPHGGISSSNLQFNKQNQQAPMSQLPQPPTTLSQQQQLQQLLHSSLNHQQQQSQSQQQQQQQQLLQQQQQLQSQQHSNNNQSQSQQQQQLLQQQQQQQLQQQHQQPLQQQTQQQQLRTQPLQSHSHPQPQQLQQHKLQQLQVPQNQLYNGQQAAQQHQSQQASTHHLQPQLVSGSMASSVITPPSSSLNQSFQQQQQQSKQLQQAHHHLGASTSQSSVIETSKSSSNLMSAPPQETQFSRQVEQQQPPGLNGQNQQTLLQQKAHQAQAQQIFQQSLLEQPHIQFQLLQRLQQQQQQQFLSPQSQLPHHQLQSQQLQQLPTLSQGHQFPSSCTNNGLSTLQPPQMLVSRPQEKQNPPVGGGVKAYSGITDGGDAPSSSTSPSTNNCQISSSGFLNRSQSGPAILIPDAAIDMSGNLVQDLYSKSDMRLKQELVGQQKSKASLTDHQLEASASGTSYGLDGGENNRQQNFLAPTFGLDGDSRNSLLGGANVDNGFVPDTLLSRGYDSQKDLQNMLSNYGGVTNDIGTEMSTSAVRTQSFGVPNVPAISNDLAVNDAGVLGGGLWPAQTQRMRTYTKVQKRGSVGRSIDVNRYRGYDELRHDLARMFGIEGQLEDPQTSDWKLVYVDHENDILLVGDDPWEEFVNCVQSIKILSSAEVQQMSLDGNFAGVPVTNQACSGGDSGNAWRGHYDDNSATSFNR

T4: MPK3 in pAS2-1 (BD-MPK3) (Arabidopsis thaliana) (UniProt Q39023)
T4 sequence: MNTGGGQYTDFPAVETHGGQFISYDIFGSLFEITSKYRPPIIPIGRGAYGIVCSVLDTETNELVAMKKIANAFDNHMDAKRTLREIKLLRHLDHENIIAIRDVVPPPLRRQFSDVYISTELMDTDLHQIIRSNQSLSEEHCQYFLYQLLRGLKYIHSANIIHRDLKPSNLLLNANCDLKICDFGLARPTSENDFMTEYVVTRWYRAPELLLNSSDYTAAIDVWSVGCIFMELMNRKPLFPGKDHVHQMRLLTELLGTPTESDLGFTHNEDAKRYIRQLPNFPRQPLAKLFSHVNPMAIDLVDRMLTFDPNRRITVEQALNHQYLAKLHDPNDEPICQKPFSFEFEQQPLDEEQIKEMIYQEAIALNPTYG

T5: TIR1 in pAS2-1 (BD-TIR1) (Arabidopsis thaliana) (UniProt Q570C0)
T5 sequence: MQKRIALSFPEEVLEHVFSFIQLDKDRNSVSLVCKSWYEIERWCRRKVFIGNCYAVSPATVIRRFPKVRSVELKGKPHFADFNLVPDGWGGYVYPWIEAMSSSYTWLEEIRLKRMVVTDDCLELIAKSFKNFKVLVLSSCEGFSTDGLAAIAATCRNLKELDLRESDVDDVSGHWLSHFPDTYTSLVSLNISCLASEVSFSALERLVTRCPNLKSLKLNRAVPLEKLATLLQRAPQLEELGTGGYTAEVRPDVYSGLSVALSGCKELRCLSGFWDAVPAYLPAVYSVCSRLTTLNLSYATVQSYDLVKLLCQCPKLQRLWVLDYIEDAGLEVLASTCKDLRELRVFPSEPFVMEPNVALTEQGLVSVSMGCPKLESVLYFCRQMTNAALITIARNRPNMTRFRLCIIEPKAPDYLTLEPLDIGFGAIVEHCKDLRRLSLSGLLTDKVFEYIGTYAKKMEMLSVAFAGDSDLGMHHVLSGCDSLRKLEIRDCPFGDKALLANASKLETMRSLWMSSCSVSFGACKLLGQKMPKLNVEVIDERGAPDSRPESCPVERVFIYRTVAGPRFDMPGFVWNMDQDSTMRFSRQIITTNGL


Columns and labels:
[1] = target: T1, CLuc-IAA15 (Arabidopsis thaliana); experiment: split reporter; firefly luciferase complementation imaging (LCI) in N. benthamiana leaves; 35S::MPKs-NLuc and 35S::CLuc-IAA15; 3 days after infiltration
[2] = target: T2, ARF19 in pAS2-1 (BD-ARF19) (Arabidopsis thaliana); experiment: two-hybrid; IAA15^WT or its mutant with ARF7 and ARF19 (pAS2-1, BD), yeast strain pJ69-4A
[3] = target: T3, ARF7 in pAS2-1 (BD-ARF7) (Arabidopsis thaliana); experiment: as above
[4] = target: T4, MPK3 in pAS2-1 (BD-MPK3) (Arabidopsis thaliana); experiment: two-hybrid; IAA15 in pGAD424 (AD), MPKs in pAS2-1 (BD), yeast strain pJ69-4A; growth on SD -L/W/H with 20 mM 3-AT (HIS3 reporter)
[5] = target: MPK6 in pAS2-1 (BD-MPK6) (Arabidopsis thaliana) (UniProt Q39026); experiment: as above
[6] = target: T5, TIR1 in pAS2-1 (BD-TIR1) (Arabidopsis thaliana); experiment: two-hybrid; IAA15^WT or its mutants with TIR1 (pAS2-1, BD); yeast growth and beta-galactosidase assays; in the absence and presence of auxin

Row | Molecule | binding [1] | binding [6] | further results
1 | MPK6-NLuc (from UniProt Q39026 1-395) (enzyme) | binds | – | –
2 | GST-IAA15 (natural protein, Arabidopsis thaliana, UniProt Q9C966 1-179, looked up, Auxin-responsive protein IAA15, Arabidopsis thaliana, At1g80390, full length, cloned into pGEX-4T-1; also called GST-fused IAA15; GST-IAA15^WT; source: E. coli BL21 (DE3), purified (glutathione Sepharose-4B); not shown: GST, N-terminal, kept) MSPEEYVRVWPDSGDLGGTELTLALPGTPTNASEGPKKFGNKRRFLETVDLKLGEAHENNYISSMVTNDQLVGWPPVATARKTVRRKYVKVALDGAAYLRKVDLGMYDCYGQLFTALENMFQGIITICRVTELERKGEFVATYEDKDGDLMLVGDVPWMMFVESCKRMRLMKTGDAIGL | – | binds | binding [2]: binds; binding [3]: binds; binding [4]: binds; binding [5]: binds
3 | IAA15^DD (phospho-mimicking mutant, yeast two-hybrid construct) (protein, UniProt Q9C966 1-179) MDPEEYVRVWPDSGDLGGTELTLALPGDPTNASEGPKKFGNKRRFLETVDLKLGEAHENNYISSMVTNDQLVGWPPVATARKTVRRKYVKVALDGAAYLRKVDLGMYDCYGQLFTALENMFQGIITICRVTELERKGEFVATYEDKDGDLMLVGDVPWMMFVESCKRMRLMKTGDAIGL | – | binds | –
4 | MPK3-NLuc (enzyme, UniProt Q39023 1-370) MNTGGGQYTDFPAVETHGGQFISYDIFGSLFEITSKYRPPIIPIGRGAYGIVCSVLDTETNELVAMKKIANAFDNHMDAKRTLREIKLLRHLDHENIIAIRDVVPPPLRRQFSDVYISTELMDTDLHQIIRSNQSLSEEHCQYFLYQLLRGLKYIHSANIIHRDLKPSNLLLNANCDLKICDFGLARPTSENDFMTEYVVTRWYRAPELLLNSSDYTAAIDVWSVGCIFMELMNRKPLFPGKDHVHQMRLLTELLGTPTESDLGFTHNEDAKRYIRQLPNFPRQPLAKLFSHVNPMAIDLVDRMLTFDPNRRITVEQALNHQYLAKLHDPNDEPICQKPFSFEFEQQPLDEEQIKEMIYQEAIALNPTYG | binds | – | –
